PubChem BioAssay AID1259308 | NCATS | 2017
The whole screen tested about 59,000 reagents; below is an unselected part. About 1,510 of them (2.6%) count as active. 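Calls use total luciferase alone and ignore viability, so some active siRNAs may act by altering cell number.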 Unmarked entries are inactive. The numbers tell different reagents against one gene apart.

- Purpose: 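Candidate targets for better recombinant protein yield in mammalian cells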 (primary screen)
- System: human HEK293 embryonic kidney cells stably expressing firefly luciferase (HEK-CMV-Luc2-Hygro)
- Knock-down reagent: single siRNA against human genes, 0.8 pmol siRNA per well
- Time to read-out: 72 h
- Read-out: 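Reporter luminescence and viable-cell signal on separate replicate plates, given as percent of non-targeting control and median/MAD z-scores, plus per-cell luciferase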
- Reading the numbers: total luciferase, z-score and total luciferase, % of control: higher = more reporter protein produced; luciferase per cell, z-score: higher = more reporter output per viable cell; viable cells, % of control: higher = more viable cells
- Rule for the call: 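An siRNA counts as active if its total luciferase robust z-score exceeds 3; genes with two or more such siRNAs out of three were retested with fresh siRNAs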
- Meaning of the calls: active = raised luciferase; inactive = no rise

gene symbol	siRNA no.	total luciferase, z-score	total luciferase, % of control	luciferase per cell, z-score	viable cells, % of control
GUCA1C (guanylate cyclase activator 1C)	1	-0.244	77	-0.352	94.4
GUCA1C (guanylate cyclase activator 1C)	2	-0.326	75.4	0.439	75.1
GUCA1C (guanylate cyclase activator 1C)	3	1.76	117	1.17	96
CRAMP1 (cramped chromatin regulator 1)	1	2.32	128	1.82	88.6
CRAMP1 (cramped chromatin regulator 1)	2	-0.426	73.4	-0.778	101
CRAMP1 (cramped chromatin regulator 1)	3	-1.14	59.2	-0.966	85.4
SNRNP48 (small nuclear ribonucleoprotein U11/U12 subunit 48)	1	2.08	123	0.865	110
SNRNP48 (small nuclear ribonucleoprotein U11/U12 subunit 48)	2	-0.843	65.1	0.354	66.3
SNRNP48 (small nuclear ribonucleoprotein U11/U12 subunit 48)	3	0.538	92.6	0.0208	103
ZNF232 (zinc finger protein 232)	1	-0.715	67.7	-0.261	81
ZNF232 (zinc finger protein 232)	2	0.195	85.8	-0.2	101
ZNF232 (zinc finger protein 232)	3	1.8	118	1.55	87.5
SIGLEC6 (sialic acid binding Ig like lectin 6)	1	0.609	94	0.932	82.2
SIGLEC6 (sialic acid binding Ig like lectin 6)	2	-0.421	73.5	-0.547	94.9
SIGLEC6 (sialic acid binding Ig like lectin 6)	3	0.773	97.3	0.582	93.2
ZNF764 (zinc finger protein 764)	1	0.225	86.4	0.521	84.1
ZNF764 (zinc finger protein 764)	2	-0.0241	81.4	-0.302	98.5
ZNF764 (zinc finger protein 764)	3	-1.11	59.8	-1.25	92.7
PCDHGA3 (protocadherin gamma subfamily A, 3)	1	-0.085	80.2	0.876	71.2
PCDHGA3 (protocadherin gamma subfamily A, 3)	2	-0.999	62	-1.28	97
PCDHGA3 (protocadherin gamma subfamily A, 3)	3	0.27	87.3	0.0873	95.3
CRYAA (crystallin alpha A)	1	-1.44	53.2	-1.84	96.5
CRYAA (crystallin alpha A)	2	-0.571	70.5	-0.352	86.5
CRYAA (crystallin alpha A)	3	0.0362	82.6	-0.356	101
MTMR9 (myotubularin related protein 9)	1	-0.654	68.9	-0.384	85.1
MTMR9 (myotubularin related protein 9)	2	-0.916	63.7	-1.03	93.2
MTMR9 (myotubularin related protein 9)	3	-0.266	76.6	-0.283	92.2
IL22 (interleukin 22)	1	1.69	115	1.56	85.6
IL22 (interleukin 22)	2	-0.508	71.8	-0.761	98
IL22 (interleukin 22)	3	-0.314	75.6	-0.621	99.5
SECISBP2 (SECIS binding protein 2)	1	0.402	89.9	2.06	58.4
SECISBP2 (SECIS binding protein 2)	2	0.469	91.2	-0.145	106
SECISBP2 (SECIS binding protein 2)	3	4.1 (active)	163	2.54	93.5
ZNF251 (zinc finger protein 251)	1	0.904	99.9	0.745	91.7
ZNF251 (zinc finger protein 251)	2	0.363	89.1	0.944	77.7
ZNF251 (zinc finger protein 251)	3	-0.512	71.7	-0.747	97.5
LOC401410 (retired record)	1	1.82	118	1.83	81.5
LOC401410 (retired record)	2	1.77	117	1.47	88.9
LOC401410 (retired record)	3	-0.924	63.5	-0.166	74.1
GLI4 (GLI family zinc finger 4)	1	-0.976	62.5	0.485	61.4
GLI4 (GLI family zinc finger 4)	2	0.789	97.6	0.191	104
GLI4 (GLI family zinc finger 4)	3	-0.171	78.5	-0.107	90.2
LOC728805 (retired record)	1	-0.212	77.7	-0.784	107
LOC728805 (retired record)	2	3.43 (active)	150	2.65	83.4
LOC728805 (retired record)	3	-1.51	51.9	-1.64	89.3
HSPBAP1 (HSPB1 associated protein 1)	1	-0.451	72.9	-0.15	84.8
HSPBAP1 (HSPB1 associated protein 1)	2	-0.64	69.2	-0.95	99.2
HSPBAP1 (HSPB1 associated protein 1)	3	0.00735	82	0.222	86.5
NACA3P (NACA family member 3, pseudogene)	1	-1.08	60.4	2.09	39
NACA3P (NACA family member 3, pseudogene)	2	1.75	117	2	76.9
NACA3P (NACA family member 3, pseudogene)	3	-0.0722	80.5	-0.53	103
LTBP2 (latent transforming growth factor beta binding protein 2)	1	-0.35	74.9	-0.15	87.1
LTBP2 (latent transforming growth factor beta binding protein 2)	2	-0.729	67.4	-0.404	83.8
LTBP2 (latent transforming growth factor beta binding protein 2)	3	-0.712	67.7	-0.99	98.2
SERPINB3 (serpin family B member 3)	1	-1.74	47.4	-1.59	80.5
SERPINB3 (serpin family B member 3)	2	-0.828	65.4	-1.02	95.6
SERPINB3 (serpin family B member 3)	3	1.13	104	2.1	67.2

Reformatted: results already given.
gene symbol,siRNA no.,"total luciferase, z-score","total luciferase, % of control","luciferase per cell, z-score","viable cells, % of control"
IL22 (interleukin 22),1,1.69,115,1.56,85.6
IL22 (interleukin 22),2,-0.508,71.8,-0.761,98
IL22 (interleukin 22),3,-0.314,75.6,-0.621,99.5
